Seven molecules from article doi:10.1101/2023.02.09.527857 can be followed below.

Sequences of proteins named here, by UniProt entry; tags and fusion partners are left off.
UniProt P31946: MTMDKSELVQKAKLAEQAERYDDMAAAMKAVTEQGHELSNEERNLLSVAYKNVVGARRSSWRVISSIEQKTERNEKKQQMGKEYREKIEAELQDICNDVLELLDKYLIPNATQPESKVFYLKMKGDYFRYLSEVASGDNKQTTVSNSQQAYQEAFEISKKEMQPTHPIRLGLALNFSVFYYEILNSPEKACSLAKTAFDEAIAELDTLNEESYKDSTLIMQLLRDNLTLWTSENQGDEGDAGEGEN
UniProt P63104: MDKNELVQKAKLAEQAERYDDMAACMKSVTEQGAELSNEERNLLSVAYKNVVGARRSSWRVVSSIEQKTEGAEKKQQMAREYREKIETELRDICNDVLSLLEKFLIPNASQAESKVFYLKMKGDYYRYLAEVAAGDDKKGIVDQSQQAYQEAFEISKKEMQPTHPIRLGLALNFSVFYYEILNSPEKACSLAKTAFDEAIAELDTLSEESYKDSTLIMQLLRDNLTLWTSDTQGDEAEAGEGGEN

Numbering of substitutions follows the chain as printed. Read-outs that look alike come from different tables or passages of the source. These are yes or no findings as the source states them, for the method shown. In cells and extracts the contact can be indirect. Some entries that bind do so weakly or less than the wild type. For some of these results: Tags and fused reporters may be left off the sequences shown.

Common to all, as to experiment: co-IP
Test [1] concerns the target T1, FLAG-tagged wild-type SMAUG1 (SMAUG1-HisTEV2xFLAG) (human) (UniProt Q9UPU9).
T1 sequence: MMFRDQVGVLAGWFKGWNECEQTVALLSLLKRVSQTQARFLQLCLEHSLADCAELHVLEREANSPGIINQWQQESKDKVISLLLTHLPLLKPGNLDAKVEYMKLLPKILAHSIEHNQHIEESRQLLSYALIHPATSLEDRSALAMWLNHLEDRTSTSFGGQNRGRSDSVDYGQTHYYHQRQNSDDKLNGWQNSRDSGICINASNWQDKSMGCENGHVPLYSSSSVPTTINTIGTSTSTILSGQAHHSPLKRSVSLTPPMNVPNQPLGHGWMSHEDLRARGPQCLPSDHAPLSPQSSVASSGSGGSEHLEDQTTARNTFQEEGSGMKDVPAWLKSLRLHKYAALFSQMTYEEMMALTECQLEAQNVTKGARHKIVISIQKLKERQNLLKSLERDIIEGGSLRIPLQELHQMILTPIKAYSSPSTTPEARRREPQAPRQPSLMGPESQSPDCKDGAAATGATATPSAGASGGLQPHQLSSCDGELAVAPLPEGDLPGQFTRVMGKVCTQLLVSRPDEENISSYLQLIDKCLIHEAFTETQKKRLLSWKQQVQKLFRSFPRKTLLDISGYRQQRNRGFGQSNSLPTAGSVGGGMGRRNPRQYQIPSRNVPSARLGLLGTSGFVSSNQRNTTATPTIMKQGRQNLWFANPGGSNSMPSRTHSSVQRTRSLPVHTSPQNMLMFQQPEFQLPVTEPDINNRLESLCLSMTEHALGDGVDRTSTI

Test [2] concerns the target myc-tagged 14-3-3β (human) (UniProt P31946).
In test [3] the target is myc-tagged 14-3-3ζ (human) (UniProt P63104).
For test [4], the target named is T2, myc-tagged 14-3-3η (human) (UniProt Q04917).
T2 sequence: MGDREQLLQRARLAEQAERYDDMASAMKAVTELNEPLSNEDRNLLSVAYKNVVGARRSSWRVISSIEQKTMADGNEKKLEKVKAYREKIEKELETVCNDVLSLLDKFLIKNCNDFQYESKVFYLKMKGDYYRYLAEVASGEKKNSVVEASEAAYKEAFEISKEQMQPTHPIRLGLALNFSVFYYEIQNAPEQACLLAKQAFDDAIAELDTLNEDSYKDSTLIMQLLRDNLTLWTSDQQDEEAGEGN

Test [5] deals with T3, myc-tagged 14-3-3γ (human) (UniProt P61981).
T3 sequence: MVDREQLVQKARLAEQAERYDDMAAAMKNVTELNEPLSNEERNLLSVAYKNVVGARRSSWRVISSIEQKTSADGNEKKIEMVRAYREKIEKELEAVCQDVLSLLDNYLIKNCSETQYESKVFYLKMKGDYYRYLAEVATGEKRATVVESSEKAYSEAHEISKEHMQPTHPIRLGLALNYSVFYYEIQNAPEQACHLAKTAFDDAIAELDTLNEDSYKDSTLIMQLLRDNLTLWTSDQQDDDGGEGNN

For test [6], the target named is T1, FLAG-tagged wild-type SMAUG1 (SMAUG1-HisTEV2xFLAG) (human). This is another data set of the same source.

With “14-3-3ζ (detected with anti-14-3-3ζ in the FLAG-SMAUG1 precipitate) (from UniProt P63104 1-245)”, the binding entry in test [1] is “binds”.

B1: endogenous SMAUG1 (protein, UniProt Q9UPU9 1-718)
chain: T1 sequence
Regarding B1, the binding entry in test [2], in test [3], in test [4] and in test [5] was “binds” each time.

B2: SMAUG1-FLAG S168/254/580A (protein, UniProt Q9UPU9-1 1-718)
chain: T1 sequence with S168A, S254A, S580A
For B2, in test [5], the binding result is on record as “no binding”.

B3: SMAUG1-FLAG S168/254/580/665A (quad S/A mutant) (protein, UniProt Q9UPU9-1 1-718)
chain: T1 sequence with S168A, S254A, S580A, S665A
Regarding B3, the binding result in test [5] was “no binding”.

B4: SMAUG1-FLAG S254/580/665A (protein, UniProt Q9UPU9-1 1-718)
chain: T1 sequence with S254A, S580A, S665A
Take B4: the binding entry in test [5] is given as “no binding”.

B5: FLAG-tagged wild-type SMAUG1 (SMAUG1-HisTEV2xFLAG) (protein, UniProt Q9UPU9-1 1-718)
chain: T1 sequence
Turning to B5, in test [5], the binding entry was “binds”.

B6: 14-3-3η (detected with anti-14-3-3η in the FLAG-SMAUG1 precipitate) (protein, UniProt Q04917 1-246)
chain: T2 sequence
Regarding B6, the binding result in test [6] is “binds”.
